Data as given in paper PMC3778752.
These are yes or no findings as the source states them, for the method shown. Binding seen in cells or lysates may run through a third protein. Here binding means that the protein was enriched with, or labelled near, the bait; the list need not be complete.

Amino acid sequences for entries named in this document (tags omitted). Residues count along the entry.
UniProt Q9UH99, residues 1-138: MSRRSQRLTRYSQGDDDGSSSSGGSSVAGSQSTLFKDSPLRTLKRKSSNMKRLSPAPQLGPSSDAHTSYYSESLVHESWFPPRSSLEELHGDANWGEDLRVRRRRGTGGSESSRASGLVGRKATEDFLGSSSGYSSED
UniProt P53618: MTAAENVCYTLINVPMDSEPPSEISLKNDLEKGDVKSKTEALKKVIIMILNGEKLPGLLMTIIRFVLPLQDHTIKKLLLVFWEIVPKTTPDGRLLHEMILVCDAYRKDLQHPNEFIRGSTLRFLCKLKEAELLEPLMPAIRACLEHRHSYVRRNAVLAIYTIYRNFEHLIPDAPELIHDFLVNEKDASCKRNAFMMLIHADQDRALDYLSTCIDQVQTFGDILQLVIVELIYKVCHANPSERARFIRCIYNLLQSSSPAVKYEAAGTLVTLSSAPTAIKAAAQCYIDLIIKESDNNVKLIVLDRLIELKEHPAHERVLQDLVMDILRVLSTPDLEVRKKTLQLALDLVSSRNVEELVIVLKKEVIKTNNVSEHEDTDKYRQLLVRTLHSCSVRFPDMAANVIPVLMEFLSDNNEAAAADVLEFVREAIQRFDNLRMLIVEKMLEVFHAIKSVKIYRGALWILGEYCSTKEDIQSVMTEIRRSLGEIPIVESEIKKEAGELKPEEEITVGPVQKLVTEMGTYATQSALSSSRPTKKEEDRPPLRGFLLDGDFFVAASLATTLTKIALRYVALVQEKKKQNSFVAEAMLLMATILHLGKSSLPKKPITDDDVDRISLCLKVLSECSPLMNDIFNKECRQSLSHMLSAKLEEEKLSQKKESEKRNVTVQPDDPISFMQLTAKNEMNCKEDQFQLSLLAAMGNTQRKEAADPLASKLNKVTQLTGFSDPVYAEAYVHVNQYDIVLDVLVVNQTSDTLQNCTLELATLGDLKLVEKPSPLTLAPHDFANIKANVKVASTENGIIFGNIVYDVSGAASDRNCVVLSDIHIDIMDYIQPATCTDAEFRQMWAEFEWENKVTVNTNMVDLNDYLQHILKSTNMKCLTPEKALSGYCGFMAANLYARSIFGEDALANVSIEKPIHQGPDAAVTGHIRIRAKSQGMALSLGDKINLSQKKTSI
UniProt P35579: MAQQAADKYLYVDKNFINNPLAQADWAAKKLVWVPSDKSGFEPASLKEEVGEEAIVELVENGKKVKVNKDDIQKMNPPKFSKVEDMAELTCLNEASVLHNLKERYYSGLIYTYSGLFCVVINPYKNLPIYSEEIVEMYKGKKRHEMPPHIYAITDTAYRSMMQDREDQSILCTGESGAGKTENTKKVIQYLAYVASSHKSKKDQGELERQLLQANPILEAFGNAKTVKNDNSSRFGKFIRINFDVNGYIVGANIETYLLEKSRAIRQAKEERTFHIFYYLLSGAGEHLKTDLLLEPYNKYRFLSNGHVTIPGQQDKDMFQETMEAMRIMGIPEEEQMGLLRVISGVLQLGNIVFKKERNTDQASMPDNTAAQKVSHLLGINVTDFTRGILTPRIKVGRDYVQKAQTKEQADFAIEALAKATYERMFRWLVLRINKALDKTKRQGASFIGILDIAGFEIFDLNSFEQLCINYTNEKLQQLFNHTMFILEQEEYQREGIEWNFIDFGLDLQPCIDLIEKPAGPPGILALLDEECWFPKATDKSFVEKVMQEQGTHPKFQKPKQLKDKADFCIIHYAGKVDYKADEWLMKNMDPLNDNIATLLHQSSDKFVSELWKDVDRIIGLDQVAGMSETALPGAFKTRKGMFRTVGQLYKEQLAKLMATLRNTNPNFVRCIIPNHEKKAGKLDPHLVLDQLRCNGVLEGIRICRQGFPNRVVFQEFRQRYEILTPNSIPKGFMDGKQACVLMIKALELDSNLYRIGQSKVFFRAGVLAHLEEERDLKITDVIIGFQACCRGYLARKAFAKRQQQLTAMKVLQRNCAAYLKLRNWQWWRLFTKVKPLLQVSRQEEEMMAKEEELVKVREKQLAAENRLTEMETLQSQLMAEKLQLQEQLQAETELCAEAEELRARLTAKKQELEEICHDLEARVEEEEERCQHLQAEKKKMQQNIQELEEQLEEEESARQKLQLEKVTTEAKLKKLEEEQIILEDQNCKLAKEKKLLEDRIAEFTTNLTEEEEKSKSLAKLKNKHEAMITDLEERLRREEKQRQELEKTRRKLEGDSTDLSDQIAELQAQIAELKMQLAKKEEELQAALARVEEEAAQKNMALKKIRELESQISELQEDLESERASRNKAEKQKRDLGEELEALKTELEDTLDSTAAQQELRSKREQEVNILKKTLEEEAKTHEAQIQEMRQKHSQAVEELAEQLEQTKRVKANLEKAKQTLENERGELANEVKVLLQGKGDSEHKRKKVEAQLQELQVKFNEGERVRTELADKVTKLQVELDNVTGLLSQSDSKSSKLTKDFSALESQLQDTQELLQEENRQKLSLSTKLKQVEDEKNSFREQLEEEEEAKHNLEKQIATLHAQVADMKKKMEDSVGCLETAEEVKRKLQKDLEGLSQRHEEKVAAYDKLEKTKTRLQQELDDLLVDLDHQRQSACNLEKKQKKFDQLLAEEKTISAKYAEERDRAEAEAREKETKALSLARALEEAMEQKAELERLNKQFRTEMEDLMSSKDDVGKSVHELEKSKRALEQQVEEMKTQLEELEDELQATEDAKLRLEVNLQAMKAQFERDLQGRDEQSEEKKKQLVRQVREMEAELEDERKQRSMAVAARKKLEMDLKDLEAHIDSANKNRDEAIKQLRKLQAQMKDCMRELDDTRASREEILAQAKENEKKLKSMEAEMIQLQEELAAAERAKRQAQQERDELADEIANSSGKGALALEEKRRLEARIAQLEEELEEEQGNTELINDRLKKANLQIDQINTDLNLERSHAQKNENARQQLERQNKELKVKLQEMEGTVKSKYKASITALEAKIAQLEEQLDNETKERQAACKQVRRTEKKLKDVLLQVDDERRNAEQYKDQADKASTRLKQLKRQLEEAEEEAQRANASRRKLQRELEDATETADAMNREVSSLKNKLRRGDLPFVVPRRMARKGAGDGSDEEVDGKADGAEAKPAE
UniProt P22314: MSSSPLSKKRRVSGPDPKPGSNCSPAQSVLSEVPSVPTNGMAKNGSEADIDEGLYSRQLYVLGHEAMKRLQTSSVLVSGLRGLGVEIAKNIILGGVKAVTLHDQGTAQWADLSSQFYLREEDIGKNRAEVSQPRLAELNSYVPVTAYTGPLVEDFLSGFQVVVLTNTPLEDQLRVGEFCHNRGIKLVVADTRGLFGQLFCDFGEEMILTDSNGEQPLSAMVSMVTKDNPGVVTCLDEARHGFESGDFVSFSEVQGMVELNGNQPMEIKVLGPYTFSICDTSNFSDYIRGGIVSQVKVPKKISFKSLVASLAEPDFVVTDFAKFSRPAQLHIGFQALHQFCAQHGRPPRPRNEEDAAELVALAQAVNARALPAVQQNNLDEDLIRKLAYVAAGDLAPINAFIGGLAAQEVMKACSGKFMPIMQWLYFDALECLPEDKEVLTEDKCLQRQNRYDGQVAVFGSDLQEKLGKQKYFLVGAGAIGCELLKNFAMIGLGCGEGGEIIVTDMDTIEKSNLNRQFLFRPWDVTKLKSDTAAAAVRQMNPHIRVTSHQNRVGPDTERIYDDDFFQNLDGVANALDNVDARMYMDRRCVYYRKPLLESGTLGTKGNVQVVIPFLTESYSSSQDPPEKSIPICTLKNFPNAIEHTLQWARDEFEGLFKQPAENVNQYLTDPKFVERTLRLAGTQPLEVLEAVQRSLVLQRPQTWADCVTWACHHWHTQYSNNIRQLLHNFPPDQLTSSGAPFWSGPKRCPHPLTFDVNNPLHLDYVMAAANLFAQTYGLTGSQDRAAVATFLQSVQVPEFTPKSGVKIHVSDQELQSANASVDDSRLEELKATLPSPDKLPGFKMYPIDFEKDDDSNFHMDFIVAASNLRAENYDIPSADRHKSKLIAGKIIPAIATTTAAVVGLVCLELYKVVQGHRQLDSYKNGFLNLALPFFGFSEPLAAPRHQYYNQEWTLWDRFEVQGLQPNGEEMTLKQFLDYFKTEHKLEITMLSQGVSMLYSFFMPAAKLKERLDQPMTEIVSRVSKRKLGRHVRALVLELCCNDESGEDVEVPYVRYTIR
UniProt Q9ULV4: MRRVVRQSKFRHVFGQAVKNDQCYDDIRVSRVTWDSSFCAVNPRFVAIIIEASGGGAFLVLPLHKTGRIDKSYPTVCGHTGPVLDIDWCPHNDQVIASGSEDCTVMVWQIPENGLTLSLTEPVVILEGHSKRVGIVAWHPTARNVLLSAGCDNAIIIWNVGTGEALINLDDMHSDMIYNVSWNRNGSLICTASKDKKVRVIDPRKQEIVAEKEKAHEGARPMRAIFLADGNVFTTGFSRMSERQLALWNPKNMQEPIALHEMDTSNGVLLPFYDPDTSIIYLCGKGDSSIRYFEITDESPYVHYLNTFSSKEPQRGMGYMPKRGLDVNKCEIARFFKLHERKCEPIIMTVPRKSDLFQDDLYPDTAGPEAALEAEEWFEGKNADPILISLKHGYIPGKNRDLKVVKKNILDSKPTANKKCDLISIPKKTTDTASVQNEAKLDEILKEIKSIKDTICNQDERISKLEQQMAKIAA
UniProt P60842: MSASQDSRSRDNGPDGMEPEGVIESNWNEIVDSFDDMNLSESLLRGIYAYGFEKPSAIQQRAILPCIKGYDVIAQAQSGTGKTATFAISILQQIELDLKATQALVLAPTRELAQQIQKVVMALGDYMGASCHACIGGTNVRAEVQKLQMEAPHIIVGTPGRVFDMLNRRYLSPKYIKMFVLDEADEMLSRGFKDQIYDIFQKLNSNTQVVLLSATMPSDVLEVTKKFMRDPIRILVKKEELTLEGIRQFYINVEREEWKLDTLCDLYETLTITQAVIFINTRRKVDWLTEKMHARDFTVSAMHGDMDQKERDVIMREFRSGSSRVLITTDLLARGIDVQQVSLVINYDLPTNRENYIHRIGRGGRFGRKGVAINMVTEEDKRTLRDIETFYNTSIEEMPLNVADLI
UniProt Q9UHB6: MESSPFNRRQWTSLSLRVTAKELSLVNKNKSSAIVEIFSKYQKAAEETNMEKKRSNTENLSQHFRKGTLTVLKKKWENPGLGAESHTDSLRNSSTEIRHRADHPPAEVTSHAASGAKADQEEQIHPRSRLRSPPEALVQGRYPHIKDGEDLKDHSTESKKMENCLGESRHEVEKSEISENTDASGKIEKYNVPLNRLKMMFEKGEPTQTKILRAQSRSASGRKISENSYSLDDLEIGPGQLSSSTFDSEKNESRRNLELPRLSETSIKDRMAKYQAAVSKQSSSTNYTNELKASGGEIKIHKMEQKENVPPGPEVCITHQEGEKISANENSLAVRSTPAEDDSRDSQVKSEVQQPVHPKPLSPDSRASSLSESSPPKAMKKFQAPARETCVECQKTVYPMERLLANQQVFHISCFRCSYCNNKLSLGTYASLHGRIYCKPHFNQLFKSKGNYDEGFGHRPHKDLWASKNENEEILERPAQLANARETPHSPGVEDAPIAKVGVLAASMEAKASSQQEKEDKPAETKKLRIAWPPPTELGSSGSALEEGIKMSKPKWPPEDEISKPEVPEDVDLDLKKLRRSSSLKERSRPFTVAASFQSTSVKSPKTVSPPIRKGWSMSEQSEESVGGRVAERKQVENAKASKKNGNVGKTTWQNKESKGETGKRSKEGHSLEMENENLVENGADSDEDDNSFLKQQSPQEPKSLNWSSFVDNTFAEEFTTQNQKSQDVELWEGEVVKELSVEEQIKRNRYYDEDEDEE
UniProt O00571: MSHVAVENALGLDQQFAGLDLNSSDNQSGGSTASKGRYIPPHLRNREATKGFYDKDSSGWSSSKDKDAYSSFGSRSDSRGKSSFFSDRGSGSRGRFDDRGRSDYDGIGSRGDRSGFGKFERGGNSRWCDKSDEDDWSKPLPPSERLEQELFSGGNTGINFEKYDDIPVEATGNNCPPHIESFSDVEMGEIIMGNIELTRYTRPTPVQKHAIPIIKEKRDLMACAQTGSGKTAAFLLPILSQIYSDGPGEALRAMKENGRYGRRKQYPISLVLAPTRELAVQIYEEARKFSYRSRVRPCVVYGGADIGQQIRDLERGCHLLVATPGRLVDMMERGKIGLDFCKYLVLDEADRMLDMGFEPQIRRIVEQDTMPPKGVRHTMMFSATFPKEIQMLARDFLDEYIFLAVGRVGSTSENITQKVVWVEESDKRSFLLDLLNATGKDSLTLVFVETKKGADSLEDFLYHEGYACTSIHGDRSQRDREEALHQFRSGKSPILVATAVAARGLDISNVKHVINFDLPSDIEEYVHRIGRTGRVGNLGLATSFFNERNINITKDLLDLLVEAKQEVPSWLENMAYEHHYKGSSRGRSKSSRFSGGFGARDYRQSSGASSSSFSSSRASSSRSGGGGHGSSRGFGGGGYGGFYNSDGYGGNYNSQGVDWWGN

B1: coiled coil domain containing protein 87 (CCDC87) (protein, UniProt Q9NVE4 1-849)
chain: MMEPPKPEPELQRFYHRLLRPLSLFPTRTTSPEPQKRPPQEGRILQSFPLAKLTVASLCSQVAKLLAGSGIAAGVPPEARLRLIKVILDELKCSWREPPAELSLSHKNNQKLRKRLEAYVLLSSEQLFLRYLHLLVTMSTPRGVFTESATLTRLAASLARDCTLFLTSPNVYRGLLADFQALLRAEQASGDVDKLHPVCPAGTFKLCPIPWPHSTGFAQVQCSNLNLNYLIQLSRPPEFLNEPGRMDPVKELKSIPRLKRKKPFHWLPSIGKKREIDISSSQMVSLPSYPVAPTSRASPSPFCPELRRGQSMPSLREGWRLADELGLPPLPSRPLTPLVLATESKPELTGLIVAEDLKQLIKKMKLEGTRYPPLDSGLPPLLGVVTRHPAAGHRLEELEKMLRNLQEEEASGQWDPQPPKSFPLHPQPVTITLKLRNEVVVQAAAVRVSDRNFLDSFHIEGAGALYNHLAGELDPKAIEKMDIDNFVGSTTREVYKELMSHVSSDHLHFDQGPLVEPAADKDWSTFLSSAFLRQEKQPQIINPELVGLYSQRANTLQSNTKKMPSLPSLQATKSWEKWSNKASLMNSWKTTLSVDDYFKYLTNHETDFLHVIFQMHEEEVPVEIVAPARESLEIQHPPPLLEDEEPDFVPGEWDWNTVLEHRLGAGKTPHLGEPHKILSLQKHLEQLWSVLEVPDKDQVDMTIKYSSKARLRQLPSLVNAWERALKPIQLREALLARLEWFEGQASNPNRFFKKTNLSSSHFLEENQVRSHLHRKLNLMESSLVSLLEEIELIFGEPVIFKGRPYLDKMKSDKVEMLYWLQQQRRVRHLVSALKDPHQSTLFRSSAASL
B2: EIF1AD (protein, UniProt Q8N9N8 1-165)
chain: MSQATKRKHVVKEVLGEHIVPSDQQQIVRVLRTPGNNLHEVETAQGQRFLVSMPSKYRKNIWIKRGDFLIVDPIEEGEKVKAEISFVLCKDHVRSLQKEGFWPEAFSEVAEKHNNRNRQTQPELPAEPQLSGEESSSEDDSDLFVNTNRRQYHESEEESEEEEAA

These molecules were tested against GST-SUN2Nt (human) (UniProt Q9UH99) (assay: affinity purification with mass spectrometry; GST-SUN2Nt on glutathione agarose beads incubated with total cell lysates (100,000 g supernatant) of control or EDMD/CMT human fibroblasts, 4 °C, 6 h; washed with PBS; 12% SDS-PAGE, Coomassie bands excised, LC-MS; done twice; only the target purified).
Coatomer β (from UniProt P53618 1-953) was tested, and the binding was “binds”. For Myosin9 (from UniProt P35579 1-1960), the binding was “binds”. “Ubiquitin-like modifier-activating enzyme (from UniProt P22314 1-1058)” was tested, and the binding was “binds”. Coronin1C (from UniProt Q9ULV4 1-474) was tested, and the binding was “binds”. titin (from UniProt Q8WZ42 1-34350) was tested, and the binding was “binds”. eIF4A-1 (from UniProt P60842 1-406) was tested, and the binding was “binds”. For LIMA1 (from UniProt Q9UHB6 1-759), the binding was “binds”. In the case of “mRNA helicase 3X (from UniProt O00571 1-662)”, the binding is reported as “binds”. For HNRNPH1 (from UniProt P31943 1-449), the binding was “binds”. With EF1A1 (from UniProt P68104 1-462) the binding was “binds”. In the case of B1, the binding is reported as “binds”. With B2 the binding was “binds”.
